Test results from paper PMC12864862.
These are yes or no findings as the source states them, for the method shown. Binding seen in cells or lysates may run through a third protein. Some binding calls cover weakened binding; strength is not graded here. Tags and fused reporters may be left off the sequences shown.

Amino acid sequences for entries named in this document (tags omitted). A change or cut given only in a name is not applied to a line headed by its entry. Chains listed by the source or under a name are the forms on record and can include a tag or linker. Residues count along the entry.
UniProt Q9HBG4: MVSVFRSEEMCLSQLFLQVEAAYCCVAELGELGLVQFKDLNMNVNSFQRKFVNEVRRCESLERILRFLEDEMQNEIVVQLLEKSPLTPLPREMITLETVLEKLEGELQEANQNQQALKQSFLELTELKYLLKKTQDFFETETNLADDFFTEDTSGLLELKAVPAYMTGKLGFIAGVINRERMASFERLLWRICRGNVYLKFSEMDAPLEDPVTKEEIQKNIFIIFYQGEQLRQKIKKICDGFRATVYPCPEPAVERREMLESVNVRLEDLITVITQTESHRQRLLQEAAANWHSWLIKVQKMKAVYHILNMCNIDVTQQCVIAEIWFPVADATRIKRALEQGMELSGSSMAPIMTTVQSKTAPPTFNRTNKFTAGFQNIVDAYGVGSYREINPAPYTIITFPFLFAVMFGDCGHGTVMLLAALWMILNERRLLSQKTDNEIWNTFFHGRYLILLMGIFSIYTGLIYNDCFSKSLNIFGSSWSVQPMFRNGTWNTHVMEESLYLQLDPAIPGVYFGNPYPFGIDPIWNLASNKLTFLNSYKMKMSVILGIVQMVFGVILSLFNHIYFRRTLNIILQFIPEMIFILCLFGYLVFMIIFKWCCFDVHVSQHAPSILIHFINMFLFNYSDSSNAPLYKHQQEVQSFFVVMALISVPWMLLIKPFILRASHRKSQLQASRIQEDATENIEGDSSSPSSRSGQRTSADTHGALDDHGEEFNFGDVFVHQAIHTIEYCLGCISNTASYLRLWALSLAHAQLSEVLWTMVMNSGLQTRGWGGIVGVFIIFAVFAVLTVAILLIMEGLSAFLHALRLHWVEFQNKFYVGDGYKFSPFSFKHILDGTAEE
Voa4 amino-terminal domain, ATP6V0A4(NTD, 1-390), 3×FLAG-tagged: residues 1-390 of Q9HBG4
UniProt Q93050: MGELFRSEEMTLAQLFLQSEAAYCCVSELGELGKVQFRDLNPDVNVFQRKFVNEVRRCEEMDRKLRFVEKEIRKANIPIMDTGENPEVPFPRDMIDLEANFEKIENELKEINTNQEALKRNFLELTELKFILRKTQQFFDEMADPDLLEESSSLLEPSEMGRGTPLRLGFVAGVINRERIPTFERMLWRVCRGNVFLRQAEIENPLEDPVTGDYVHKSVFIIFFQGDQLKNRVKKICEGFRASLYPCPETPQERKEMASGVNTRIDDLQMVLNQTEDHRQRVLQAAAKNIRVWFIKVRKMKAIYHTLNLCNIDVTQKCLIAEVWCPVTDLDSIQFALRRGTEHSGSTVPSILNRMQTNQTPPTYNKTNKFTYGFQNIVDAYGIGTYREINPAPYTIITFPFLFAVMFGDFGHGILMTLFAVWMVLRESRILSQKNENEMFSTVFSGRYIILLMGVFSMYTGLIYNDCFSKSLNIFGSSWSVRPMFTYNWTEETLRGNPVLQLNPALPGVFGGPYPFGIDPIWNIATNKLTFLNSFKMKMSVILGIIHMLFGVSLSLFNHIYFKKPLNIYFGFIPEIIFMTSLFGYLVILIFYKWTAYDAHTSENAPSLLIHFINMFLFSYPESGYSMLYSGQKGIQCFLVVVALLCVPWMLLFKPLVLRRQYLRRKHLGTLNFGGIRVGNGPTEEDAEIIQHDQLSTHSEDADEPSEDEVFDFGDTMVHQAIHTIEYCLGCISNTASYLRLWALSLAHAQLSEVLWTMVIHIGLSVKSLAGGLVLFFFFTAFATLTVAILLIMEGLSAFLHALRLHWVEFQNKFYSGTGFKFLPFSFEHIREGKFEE
Voa1 amino-terminal domain, ATP6V0A1(NTD, 1-388), 3×FLAG-tagged: residues 1-388 of Q93050

T1: Voa2 amino-terminal domain, ATP6V0A2 (NTD, 1-393), 3×FLAG-tagged (human) (UniProt Q9Y487)
T1 sequence: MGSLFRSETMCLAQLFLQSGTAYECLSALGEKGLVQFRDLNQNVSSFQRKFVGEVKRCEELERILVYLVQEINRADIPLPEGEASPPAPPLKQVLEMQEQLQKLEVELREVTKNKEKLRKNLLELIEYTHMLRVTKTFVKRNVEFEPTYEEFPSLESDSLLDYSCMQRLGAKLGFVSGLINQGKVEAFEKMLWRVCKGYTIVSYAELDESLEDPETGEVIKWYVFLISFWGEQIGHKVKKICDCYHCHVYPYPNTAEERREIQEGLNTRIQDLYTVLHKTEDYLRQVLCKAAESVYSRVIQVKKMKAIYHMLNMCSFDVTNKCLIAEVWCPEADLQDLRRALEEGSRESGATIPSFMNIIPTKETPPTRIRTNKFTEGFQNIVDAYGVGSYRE

T2: Voa3 amino-terminal domain, ATP6V0A3(NTD, 1-385), 3×FLAG-tagged (human) (UniProt Q13488)
T2 sequence: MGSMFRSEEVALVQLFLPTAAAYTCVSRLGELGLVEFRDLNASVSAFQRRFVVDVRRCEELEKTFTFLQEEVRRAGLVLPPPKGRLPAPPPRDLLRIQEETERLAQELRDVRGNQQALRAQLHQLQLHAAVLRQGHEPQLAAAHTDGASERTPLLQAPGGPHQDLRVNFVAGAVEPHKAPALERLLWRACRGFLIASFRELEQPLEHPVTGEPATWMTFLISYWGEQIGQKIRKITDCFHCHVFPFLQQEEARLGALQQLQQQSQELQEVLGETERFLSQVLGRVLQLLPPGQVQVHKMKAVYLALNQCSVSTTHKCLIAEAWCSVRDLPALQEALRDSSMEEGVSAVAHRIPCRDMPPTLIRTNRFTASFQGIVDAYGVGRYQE


Key:
Test in all cases: co-IP; HEK293T cells transfected as indicated; lysis in IP buffer (50 mM Tris-HCl pH 7.6, 150 mM NaCl, 5 mM EDTA, 0.5% NP40, protease inhibitors); anti-FLAG beads, 4 °C, 4 h; immunoblotting (in Fig. 5D also with the inactive ZRANB1 C443S overexpressed)
[1] = target: T1, Voa2 amino-terminal domain, ATP6V0A2 (NTD, 1-393), 3×FLAG-tagged (human)
[2] = target: V-ATPase Vo subunit a, isoform 4 (Voa4, ATP6V0A4) (human) (UniProt Q9HBG4)
[3] = target: V-ATPase Vo subunit a, isoform 3 (Voa3, encoded by ATP6V0A3) (human) (UniProt Q13488)
[4] = target: T2, Voa3 amino-terminal domain, ATP6V0A3(NTD, 1-385), 3×FLAG-tagged (human)
[5] = target: V-ATPase Vo subunit a, isoform 1 (Voa1, ATP6V0A1), 3×FLAG-tagged (human) (UniProt Q93050)
[6] = target: Voa1 amino-terminal domain, ATP6V0A1(NTD, 1-388), 3×FLAG-tagged (human) (UniProt Q93050)
[7] = target: Voa4 amino-terminal domain, ATP6V0A4(NTD, 1-390), 3×FLAG-tagged (human) (UniProt Q9HBG4)
[8] = target: V-ATPase Vo subunit a, isoform 2 (Voa2, ATP6V0A2) (human) (UniProt Q9Y487)

binding [1]	binding [2]	binding [3]	binding [4]	binding [5]	binding [6]	binding [7]	binding [8]	Binder
binds	binds	binds	binds	binds	binds	binds	binds	apoptosis-resistant E3 ubiquitin protein ligase 1 (AREL1), wild type, myc-tagged (enzyme, UniProt O15033 1-823) MFYVIGGITVSVVAFFFTIKFLFELAARVVSFLQNEDRERRGDRTIYDYVRGNYLDPRSCKVSWDWKDPYEVGHSMAFRVHLFYKNGQPFPAHRPVGLRVHISHVELAVEIPVTQEVLQEPNSNVVKVAFTVRKAGRYEITVKLGGLNVAYSPYYKIFQPGMVVPSKTKIVCHFSTLVLTCGQPHTLQIVPRDEYDNPTNNSMSLRDEHNYTLSIHELGPQEEESTGVSFEKSVTSNRQTFQVFLRLTLHSRGCFHACISYQNQPINNGEFDIIVLSEDEKNIVERNVSTSGVSIYFEAYLYNATNCSSTPWHLPPMHMTSSQRRPSTAVDEEDEDSPSECHTPEKVKKPKKVYCYVSPKQFSVKEFYLKIIPWRLYTFRVCPGTKFSYLGPDPVHKLLTLVVDDGIQPPVELSCKERNILAATFIRSLHKNIGGSETFQDKVNFFQRELRQVHMKRPHSKVTLKVSRHALLESSLKATRNFSISDWSKNFEVVFQDEEALDWGGPRREWFELICKALFDTTNQLFTRFSDNNQALVHPNPNRPAHLRLKMYEFAGRLVGKCLYESSLGGAYKQLVRARFTRSFLAQIIGLRMHYKYFETDDPEFYKSKVCFILNNDMSEMELVFAEEKYNKSGQLDKVVELMTGGAQTPVTNANKIFYLNLLAQYRLASQVKEEVEHFLKGLNELVPENLLAIFDENELELLMCGTGDISVSDFKAHAVVVGGSWHFREKVMRWFWTVVSSLTQEELARLLQFTTGSSQLPPGGFAALCPSFQIIAAPTHSTLPTAHTCFNQLCLPTYDSYEEVHRMLQLAISEGCEGFGML
		binds weakly						AREL1 D709A (enzyme, UniProt O15033 1-823) MFYVIGGITVSVVAFFFTIKFLFELAARVVSFLQNEDRERRGDRTIYDYVRGNYLDPRSCKVSWDWKDPYEVGHSMAFRVHLFYKNGQPFPAHRPVGLRVHISHVELAVEIPVTQEVLQEPNSNVVKVAFTVRKAGRYEITVKLGGLNVAYSPYYKIFQPGMVVPSKTKIVCHFSTLVLTCGQPHTLQIVPRDEYDNPTNNSMSLRDEHNYTLSIHELGPQEEESTGVSFEKSVTSNRQTFQVFLRLTLHSRGCFHACISYQNQPINNGEFDIIVLSEDEKNIVERNVSTSGVSIYFEAYLYNATNCSSTPWHLPPMHMTSSQRRPSTAVDEEDEDSPSECHTPEKVKKPKKVYCYVSPKQFSVKEFYLKIIPWRLYTFRVCPGTKFSYLGPDPVHKLLTLVVDDGIQPPVELSCKERNILAATFIRSLHKNIGGSETFQDKVNFFQRELRQVHMKRPHSKVTLKVSRHALLESSLKATRNFSISDWSKNFEVVFQDEEALDWGGPRREWFELICKALFDTTNQLFTRFSDNNQALVHPNPNRPAHLRLKMYEFAGRLVGKCLYESSLGGAYKQLVRARFTRSFLAQIIGLRMHYKYFETDDPEFYKSKVCFILNNDMSEMELVFAEEKYNKSGQLDKVVELMTGGAQTPVTNANKIFYLNLLAQYRLASQVKEEVEHFLKGLNELVPENLLAIFDENELELLMCGTGAISVSDFKAHAVVVGGSWHFREKVMRWFWTVVSSLTQEELARLLQFTTGSSQLPPGGFAALCPSFQIIAAPTHSTLPTAHTCFNQLCLPTYDSYEEVHRMLQLAISEGCEGFGML
